These results are taken from PubChem BioAssay AID2685 (National Center for Advancing Translational Sciences (NCATS), 2010).

The assay can be described thus: qHTS Assay for Lipid Storage Modulators in Drosophila S3 Cells.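 As to cell number change: cells counted by Cell Tracker Red CMTPX staining in the red channel.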 The settings on record: BODIPY lipid droplet fluorescence, 18-24 h; for cell number change: measured here: cell count max response, cells fed with added oleic acid. In outline: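 Drosophila S3 cells got compounds at several concentrations plus oleic acid (400 uM solution). Laser-scanning cytometry with 488 nm excitation read lipid droplets at 500-530 nm and cells at 575-640 nm. Percent activity was relative to 20 uM Triacsin C.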
For orientation: Quantitative high-throughput screening tests each substance at several concentrations.

The mark [1] stands for this setting: measured here: cell number channel AC50, cells fed with added oleic acid.
Where [2] appears, read: measured here: lipid fluorescence (Fed channel) AC50, cells fed with added oleic acid.

The list shows a part of the results. These are further read-outs of the screen, such as a control signal, another cell line or another target. No call is given for them. Most of these compounds were active or inconclusive in the main read-out, so they are no random draw. Potencies come from curve fits of mixed quality, noted in brackets.

The AC50 is the concentration at which the activity in the assay is half-maximal. The low end stands for greater potency, the high end for weaker potency. Regarding `Cn1cc(C(=O)OCC(=O)NC2(C#N)CCCC2)c2ccccc21`, the cell number change came out at 36.1%. Besides, the AC50 under setting [1] is 2060 nM [rising, single point]. The AC50 under setting [2] is 6510 nM [falling, single point].
Turning to `C[C@]12CC(=O)CC1CCC1C2CC[C@@]2(C)C1CC[C@@H]2O` (some centres not stated), the cell number change is -14%. Further, under setting [2], the AC50 is 130 nM [rising, full curve, poor fit].
As to `COc1ccc(-n2c(O)c(/C=C3\C=Nc4ccc(Br)cc43)c(=O)[nH]c2=O)c(OC)c1`, the cell number change is -28.3%. Moreover, the concentration at half-maximal activity (AC50) under setting [2] is 29100 nM [falling, single point].
For the compound `CN1CCN(c2ncnc(Cl)c2N)CC1`, the cell number change is 14.3%. Further, the half-maximal activity concentration (AC50) under setting [2] is 461 nM [rising, full curve, poor fit].
For the compound `O=C(Cc1ccccc1)OCCN1CCOCC1`, the cell number change is 16.7%. Also, the AC50 under setting [2] was 7310 nM [falling, partial curve].
As for `O=C(COc1ccccc1)N1CCN(C/C=C/c2ccccc2)CC1`, the cell number change was -12.1%. Also, the AC50 under setting [2] is 8200 nM [rising, partial curve].
In the case of `O[C@@H]1CCCC[C@H]1N1CCC(c2ccccc2)CC1`, the AC50 under setting [2] is 920 nM [falling, full curve].
Take `O=Cc1cn(Cc2ccccc2[N+](=O)[O-])c2ccccc12`: the cell number change is -8.86%. Further, the AC50 under setting [2] is 29100 nM [falling, single point].
For `O=C1CCCN1CC#CCN1CCCC1`, the cell number change was -24.3%.
Regarding `C/C(=N\NC(=O)c1ccncc1)c1c(O)n(Cc2ccccc2)c(=O)[nH]c1=O`, the cell number change was determined as 12.4%. For the same compound, the concentration at half-maximal activity (AC50) under setting [2] is 461 nM [rising, full curve, poor fit].
Consider `Cn1cc([N+](=O)[O-])c(C(=O)Nc2ccc3c(C(F)(F)F)cc(=O)oc3c2)n1`, for which the cell number change is 13.2%.
For `Cc1ccccc1N1C(=O)NC(=O)/C(=C\c2ccc3c(c2)CCCN3Cc2ccccc2)C1=O`, the cell number change was -17.6%. Besides, the concentration at half-maximal activity (AC50) under setting [2] was 11.6 nM [falling, full curve, poor fit].
For the compound `COc1ccccc1CN1CCN(C(=O)Cc2ccccc2)CC1`, the concentration at half-maximal activity (AC50) by setting is: under setting [1], 6.51 nM [falling, full curve]; under setting [2], 6510 nM [falling, single point].
For the compound `COC(=O)C1=C(c2c(C)noc2C)C[C@@H]2CC[C@H]1N2C(=O)NC1Cc2ccccc2C1`, the cell number change is -8.9%. For the same compound, the AC50 under setting [2] was 5.17 nM [falling, full curve, poor fit].
On to `O=c1c2ccccc2nc(CNCc2ccco2)n1-c1ccc(F)cc1`, for which the cell number change was found to be 0.609%. In addition, the AC50 under setting [1] was 651 nM [rising, single point]. For the same compound, the half-maximal activity concentration (AC50) under setting [2] was 16400 nM [rising, single point].
Take `O=P(Oc1ccccc1)(Oc1ccccc1)C(Nc1ccccc1)c1ccccc1` (configuration not stated): the cell number change is -0.29%. In addition, the AC50 under setting [2] is 3260 nM [rising, partial curve, poor fit].
Consider `Cc1cc(OC(=O)N2CCOCC2)cc(C)c1Cl`, for which the concentration at half-maximal activity (AC50) under setting [1] was 651 nM [falling, full curve, poor fit].
